No constants are given. Whether binding was seen depends on the method and setting. Binding seen in cells or lysates may run through a third protein. These calls come from enrichment with a bait or labelling near it, and not all partners need be listed. For some assays here: A no says only that the protein was not detected with the bait.
Key:
[1] = molecular target: DDX3X-myc (HeLa cells) (UniProt O00571); test: affinity purification with mass spectrometry; HeLa cells transfected with TRPV4 and DDX3X-myc, isotonic control media; lysate with anti-Myc antibody overnight at 4 C, protein G beads, on-bead trypsin digestion, MALDI-TOF-MS
[2] = molecular target: DDX3X-myc (HeLa cells) (UniProt O00571); test: affinity purification with mass spectrometry; as a6, but HeLa cells treated with GSK1016790A before lysis

Protein sequences, listed by entry. Tags and fused reporters are not part of them.
UniProt O00571: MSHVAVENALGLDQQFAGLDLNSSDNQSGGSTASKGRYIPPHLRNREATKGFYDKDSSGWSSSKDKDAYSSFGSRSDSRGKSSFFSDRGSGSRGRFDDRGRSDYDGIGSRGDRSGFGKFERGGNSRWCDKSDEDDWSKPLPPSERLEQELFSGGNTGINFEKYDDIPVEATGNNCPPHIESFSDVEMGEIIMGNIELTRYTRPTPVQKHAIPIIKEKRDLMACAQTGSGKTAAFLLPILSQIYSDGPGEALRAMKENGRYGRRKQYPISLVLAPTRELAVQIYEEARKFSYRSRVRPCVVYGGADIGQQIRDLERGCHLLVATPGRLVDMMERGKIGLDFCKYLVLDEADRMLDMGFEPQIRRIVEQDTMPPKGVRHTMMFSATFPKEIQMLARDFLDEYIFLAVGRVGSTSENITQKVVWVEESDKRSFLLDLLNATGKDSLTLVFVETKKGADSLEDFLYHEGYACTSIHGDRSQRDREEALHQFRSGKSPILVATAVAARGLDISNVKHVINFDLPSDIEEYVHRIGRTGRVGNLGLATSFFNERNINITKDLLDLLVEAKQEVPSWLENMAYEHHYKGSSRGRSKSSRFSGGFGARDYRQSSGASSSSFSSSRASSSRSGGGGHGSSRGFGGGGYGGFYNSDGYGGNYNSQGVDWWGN
UniProt Q9HBA0: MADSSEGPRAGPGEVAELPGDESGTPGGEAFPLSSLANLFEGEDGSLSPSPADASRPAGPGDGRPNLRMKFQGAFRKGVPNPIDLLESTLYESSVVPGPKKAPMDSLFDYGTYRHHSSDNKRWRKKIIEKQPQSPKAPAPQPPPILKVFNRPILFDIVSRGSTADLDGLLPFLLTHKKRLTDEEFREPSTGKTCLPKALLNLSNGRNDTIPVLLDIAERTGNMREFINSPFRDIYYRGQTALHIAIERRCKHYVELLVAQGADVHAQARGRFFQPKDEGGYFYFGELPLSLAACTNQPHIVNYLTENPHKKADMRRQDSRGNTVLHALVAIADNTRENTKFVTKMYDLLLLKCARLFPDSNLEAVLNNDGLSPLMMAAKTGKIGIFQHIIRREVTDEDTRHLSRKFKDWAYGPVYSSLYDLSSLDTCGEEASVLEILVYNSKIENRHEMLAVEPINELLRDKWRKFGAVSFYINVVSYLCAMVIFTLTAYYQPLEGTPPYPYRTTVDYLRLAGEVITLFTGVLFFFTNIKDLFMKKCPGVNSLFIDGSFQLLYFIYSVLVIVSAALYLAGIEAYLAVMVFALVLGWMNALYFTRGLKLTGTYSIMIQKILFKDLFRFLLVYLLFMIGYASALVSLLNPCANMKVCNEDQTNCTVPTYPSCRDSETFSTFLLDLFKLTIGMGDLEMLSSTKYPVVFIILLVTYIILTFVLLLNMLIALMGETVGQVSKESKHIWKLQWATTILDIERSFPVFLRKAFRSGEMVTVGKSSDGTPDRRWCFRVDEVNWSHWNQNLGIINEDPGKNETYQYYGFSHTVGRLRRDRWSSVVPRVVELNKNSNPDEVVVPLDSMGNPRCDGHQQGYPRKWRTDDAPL

binding [1]: binds
Substance: TRPV4 (overexpressed in HeLa cells for the DDX3X pull-down with mass spectrometry) (from UniProt Q9HBA0 1-871) (receptor)
binding [2]: no binding (only cells treated with GSK1016790A)

— publication PMC5998047
